The source of these data is PMC8430998.

Protein sequences, listed by entry. Tags and fused reporters are not part of them. Lines headed by an entry give the natural chain unless they say otherwise; changes in a name come on top. Chains listed by the source or under a name are the forms on record and can include a tag or linker.
AR-V7 (missing the ligand binding domain) (P10275-3, form named): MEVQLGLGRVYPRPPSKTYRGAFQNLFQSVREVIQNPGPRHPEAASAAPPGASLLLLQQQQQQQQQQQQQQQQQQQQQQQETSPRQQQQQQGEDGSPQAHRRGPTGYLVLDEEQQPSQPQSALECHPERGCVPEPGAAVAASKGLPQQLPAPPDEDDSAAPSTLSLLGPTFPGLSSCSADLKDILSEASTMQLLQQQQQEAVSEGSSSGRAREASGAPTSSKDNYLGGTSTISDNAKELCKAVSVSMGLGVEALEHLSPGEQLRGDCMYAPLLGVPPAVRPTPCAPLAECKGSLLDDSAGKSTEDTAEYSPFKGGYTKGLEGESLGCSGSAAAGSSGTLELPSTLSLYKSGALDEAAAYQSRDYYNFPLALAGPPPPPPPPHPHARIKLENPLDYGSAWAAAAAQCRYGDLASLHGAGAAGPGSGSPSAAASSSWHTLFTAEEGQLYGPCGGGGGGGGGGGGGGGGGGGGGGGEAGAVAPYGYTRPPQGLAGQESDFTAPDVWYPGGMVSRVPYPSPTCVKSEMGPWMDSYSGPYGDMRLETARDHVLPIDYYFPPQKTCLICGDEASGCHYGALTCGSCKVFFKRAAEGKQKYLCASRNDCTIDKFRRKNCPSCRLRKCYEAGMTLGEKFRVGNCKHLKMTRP

The target of this assay is T1, CSHQ-NRDP1-FLAG (UniProt Q9H4P4).
T1 sequence: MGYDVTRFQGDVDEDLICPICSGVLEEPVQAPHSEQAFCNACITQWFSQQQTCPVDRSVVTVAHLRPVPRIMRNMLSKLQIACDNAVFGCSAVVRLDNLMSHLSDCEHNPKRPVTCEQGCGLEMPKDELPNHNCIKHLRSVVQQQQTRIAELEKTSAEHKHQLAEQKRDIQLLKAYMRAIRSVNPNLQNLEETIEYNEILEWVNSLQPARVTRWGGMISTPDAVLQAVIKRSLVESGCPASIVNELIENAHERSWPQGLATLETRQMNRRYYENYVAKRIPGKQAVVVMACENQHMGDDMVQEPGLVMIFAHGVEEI
As to the kind of experiment: co-IP; cells (LNCaP by the text, PC-3 by the legend) co-transfected with AR constructs and FLAG-tagged NRDP1-CSHQ (3 μg per 100 mm dish, 72 h); FLAG immunoprecipitation, western blot for AR. For orientation: In western blotting, separated proteins are transferred to a membrane and probed.

No constants are given. Whether binding was seen depends on the method and setting. In cells and extracts the contact can be indirect. Some entries that bind do so weakly or less than the wild type. Tags and fused reporters may be left off the sequences shown.

Turning to “AR-V7 (missing the ligand binding domain) (from UniProt P10275-3 1-644) (receptor)”, the binding result is reported as “binds”.
